Experimental data taken from patent publication US20090181003A1, “Regulation of S6 Kinsase Protein Activity and Related Methods” (priority 2005, published 2009).
No constants are given. Whether binding was seen depends on the method and setting. Some results given as binding are weak or reduced against the parent protein; the word gives no strength.

Amino acid sequences for entries named in this document (tags omitted). A change or cut given only in a name is not applied to a line headed by its entry.
UniProt P23443: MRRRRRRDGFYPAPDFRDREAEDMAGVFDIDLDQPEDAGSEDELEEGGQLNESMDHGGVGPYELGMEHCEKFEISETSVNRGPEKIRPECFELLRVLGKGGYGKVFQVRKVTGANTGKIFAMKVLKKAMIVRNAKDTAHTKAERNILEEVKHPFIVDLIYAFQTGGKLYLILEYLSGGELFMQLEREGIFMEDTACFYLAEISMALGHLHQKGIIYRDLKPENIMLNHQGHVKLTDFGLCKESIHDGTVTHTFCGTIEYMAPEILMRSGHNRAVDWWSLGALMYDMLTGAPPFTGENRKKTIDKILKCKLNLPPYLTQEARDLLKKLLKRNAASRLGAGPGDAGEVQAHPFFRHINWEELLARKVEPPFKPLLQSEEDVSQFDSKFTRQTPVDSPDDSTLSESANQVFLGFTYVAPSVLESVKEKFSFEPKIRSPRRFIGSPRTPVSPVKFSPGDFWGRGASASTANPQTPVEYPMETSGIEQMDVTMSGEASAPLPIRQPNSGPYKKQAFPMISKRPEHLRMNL

Target: p300/Gal4 DNA binding domain (DBD) fusion (UniProt P04386)
Test: anti-EE immunoprecipitation from cotransfected HEK 293 cells, anti-Gal4 DBD western blot

binding: binds
Substance: EE-tagged S6K1 (from UniProt P23443 1-525) (enzyme)
